Test results taken from patent US20230149561A1, “Functionalized Nanoparticles and Their Use in Treating Bacterial Infections” (The Board of Trustees of the Leland Stanford Junior …, priority 2019, published 2023).
At least one structure is not confirmed: it was looked up by name or label, or the drawing left a doubt.

Assays:
[1] = system: Staphylococcus aureus (SA) clinical isolate from CSOM biofilm; assay: SA CSOM biofilm eradication; assay type: cell-based; conditions: OFL alone at 3000 μg/ml
[2] = system: P. aeruginosa PA01 persister cells in middle ear; assay: In vivo efficacy, mouse model of P. aeruginosa CSOM; design: species or system Pseudomonas aeruginosa; conditions: 14 days after stopping treatment, 24 μg of ofloxacin
[3] = system: P. aeruginosa (ATCC 27853) biofilm; conditions: 24 h old P. aeruginosa (ATCC 27853) biofilm; reported by Masadeh; cited from earlier work
[4] = system: P. aeruginosa (ATCC 27853); conditions: sensitive strain P. aeruginosa (ATCC 27853); cited from earlier work

## CC1COc2c(N3CCN(C)CC3)c(F)cc3c(=O)c(C(=O)O)cn1c23 (stereo not shown) [ofloxacin]
[1]
  eradication of SA biofilms: unable to eradicate
[2]
  difference versus placebo control (PBS) in middle ear effusion CFU/mL: no difference
[3]
  MBEC: 640 µg/mL
[4]
  minimum bacteriocidal concentration (MBC): 5 µg/mL
